These results are taken from US20110195494A1 (Boehringer Ingelheim, published 2011).

Amino acid sequences for entries named in this document (tags omitted). A change or cut given only in a name is not applied to a line headed by its entry. Residues count along the entry.
UniProt Q9NR61: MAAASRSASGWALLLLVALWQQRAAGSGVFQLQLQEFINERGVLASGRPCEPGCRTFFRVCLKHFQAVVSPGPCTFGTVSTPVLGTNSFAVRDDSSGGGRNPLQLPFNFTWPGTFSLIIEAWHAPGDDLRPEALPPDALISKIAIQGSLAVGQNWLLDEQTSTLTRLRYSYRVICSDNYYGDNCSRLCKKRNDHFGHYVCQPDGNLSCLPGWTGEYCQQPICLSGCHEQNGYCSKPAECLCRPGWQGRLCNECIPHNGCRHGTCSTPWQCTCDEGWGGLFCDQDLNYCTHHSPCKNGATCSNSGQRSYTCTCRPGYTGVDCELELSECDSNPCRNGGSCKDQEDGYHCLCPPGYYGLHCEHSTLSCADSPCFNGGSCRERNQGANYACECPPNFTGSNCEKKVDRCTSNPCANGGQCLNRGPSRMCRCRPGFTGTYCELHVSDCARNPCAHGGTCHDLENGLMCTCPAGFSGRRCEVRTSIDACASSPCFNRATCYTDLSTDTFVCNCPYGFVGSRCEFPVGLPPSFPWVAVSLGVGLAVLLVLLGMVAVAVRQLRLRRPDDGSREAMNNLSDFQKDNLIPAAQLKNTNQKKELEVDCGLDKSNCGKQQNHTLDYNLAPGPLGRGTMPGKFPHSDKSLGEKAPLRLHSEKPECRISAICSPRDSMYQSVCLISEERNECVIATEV
UniProt Q9JI71, residues 27-686: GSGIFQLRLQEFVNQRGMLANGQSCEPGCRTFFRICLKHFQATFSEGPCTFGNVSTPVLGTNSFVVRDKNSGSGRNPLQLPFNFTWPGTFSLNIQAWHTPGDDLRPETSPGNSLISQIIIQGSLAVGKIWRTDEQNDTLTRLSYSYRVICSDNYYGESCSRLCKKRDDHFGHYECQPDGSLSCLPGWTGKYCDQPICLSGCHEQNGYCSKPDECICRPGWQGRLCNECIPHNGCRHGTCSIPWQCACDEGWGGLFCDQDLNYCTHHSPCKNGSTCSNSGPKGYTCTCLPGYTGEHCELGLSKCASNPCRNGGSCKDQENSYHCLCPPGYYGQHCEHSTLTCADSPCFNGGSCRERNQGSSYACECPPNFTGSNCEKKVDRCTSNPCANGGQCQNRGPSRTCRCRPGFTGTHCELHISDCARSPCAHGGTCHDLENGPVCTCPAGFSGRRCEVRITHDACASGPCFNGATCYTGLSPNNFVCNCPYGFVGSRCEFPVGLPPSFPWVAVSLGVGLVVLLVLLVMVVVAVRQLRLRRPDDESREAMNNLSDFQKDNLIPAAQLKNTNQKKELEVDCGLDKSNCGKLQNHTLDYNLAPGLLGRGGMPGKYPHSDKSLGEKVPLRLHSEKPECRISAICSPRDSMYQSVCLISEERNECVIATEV

B1: DLLBII61F07 (VHH)
VHH: EVQLVESGGGLVQAGGSLRLSCAASGRTFSRYAMGWFRQAPGKEREFVAAINWSGGSTYYADSVKGRFTISRDNAKNTVYLQMNSLKPEDTAVYDCAASNYYSVYDDRPVMDYWGQGTQVTVSS
notes: tested as periplasmic extract; also called DLLBII61F7; not shown: C-terminal c-myc tag and His6 tag
B2: DLLBII55D12 (VHH, not shown: small tags and cut ends)
VHH: EVQLVESGGGLVQPGGSLRLSCAASGFTFDDYAIGWFRQAPGKEPEGISCISSSGGITYYADSVKGRFTISRDNAKNTVYLQMNSLKPEDTAVYYCATPGIAACRGIHYTGQGTQVTVSS
B3: DLLBII57C11 (VHH, not shown: small tags and cut ends)
VHH: B2 VHH with A23T, G56S, Y60D, T110W
B4: DLLBII56H08 (VHH, not shown: small tags and cut ends)
VHH: B2 VHH with G47E
B5: DLLBII56C04 (VHH, not shown: small tags and cut ends)
VHH: B2 VHH with A23T, D31V, G56S, I70T, N74S, T110W
B6: DLLBII56A09 (VHH, not shown: small tags and cut ends)
VHH: B2 VHH with I70T
B7: DLLBII8C11 (VHH)
VHH: EVQLVESGGGLVQAGGSLRLSCAASGFTFDDYAIGWFRQAPGKEREGVSCISSHDRTTYYADSVKGRFTISSDNAKNTVYLQMNSLKPEDTAVYYCAADPLVCGYNDPRLADYWGQGTQVTVSS
notes: also called DLLBII08C11; not shown: C-terminal c-myc tag and His6 tag
B8: DLLBII5B11 (VHH)
VHH: EVQLVESGGGLVQPGGSLRLSCAISGFTLDLHVIGWLRQAPGKEREWVSCISSSDGSTYYADSVKGRFTISRDNAKNTVYLQMNSLKPEDTAVYYCAAPWDSWYCGIGNDYDYWGQGTQVTVSS
notes: also called DLLBII05B11; not shown: C-terminal c-myc tag and His6 tag
B9: DLLBII07A02 (VHH, not shown: small tags and cut ends)
VHH: EVQLVESGGGLVQAGGSLRLSCAASGSTFNSYAMGWYRQAPGKQREWVAAFSTGGSTNYADSVKGRFTISRDNAKNTVYLQMNSLKPEDTAVYYCFYSGSYYYPTDVFEYDYWGQGTQVTVSS
B10: DLLBII95F02 (VHH)
VHH: EVQLVESGGGSVQAGGSLRLSCAASGRTFSSYAMGWFRQAPGKEREFVAAINWSGGYTYYADSVRGRFTISRDNAKNTVYLQMNSLKPEDTAVYYCAAPAPGSSGYEYDYWGQGTQVTVSS
notes: tested as periplasmic extract; also called DLLBII95F2; not shown: C-terminal c-myc tag and His6 tag
B11: DLLBII8A09 (VHH)
VHH: EVQLVESGGGLVQPGGSLRLSCAASGFTLDYYNIGWFRQAPGKEREWVSCINSSDGSTYYADSVKGRFTISRDNAKNTVYLQMNSLKPEDTAVYYCAAPFAYYSNLCGVNGYDYWGQGTQVTVSS
notes: also called DLLBII08A09; not shown: C-terminal c-myc tag and His6 tag
B12: DLLBII61F05 (VHH)
VHH: EVQLVESGGGLVQPGGSLRLSCTASGFTFSSYAMSWVRQAPGKGLEWVSFINKDGSDTGYADSVKGRFTISRDNAKNTMYLQMNSLKPEDTAVYFCETRTSRSPRPRGQGTQVTVSS
notes: tested as periplasmic extract; also called DLLBII61F5; not shown: C-terminal c-myc tag and His6 tag
B13: 83G04 (VHH)
VHH: EVQLVESGGGLVKPGGSLRLSCAASGRTLYIMGWYRQAPGKEREFVAGISRYGDITYAADSVKGRFTISRDSVKNTVYLRMNSLKPDDTAVYYCAANGGYCSGYGCYEDSGQYDYWGQGTQVTVSS
notes: also called DLLBII83G04
B14: DLLBII19F04 (VHH)
VHH: EVQLVESGGGLVQAEGSLRLSCAASGSTFSTYAMAWYRQAPGKQRELVAGISFDGSTHYAESVKGRFTISRDDAKNTVSLQMNSLKPEDAAVYYCYSVHPSTGFGSWGQGTQVTVSS
notes: also called DLLBII19F4; not shown: C-terminal c-myc tag and His6 tag
B15: DLLBII102G04 (VHH)
VHH: EVQLMESGGGLVQPGGSLRLSCAASGFTFSSYAMSWVRQAPGKGLEWVSRITSGGRTTYRDSVKGRFTISRDNSKNTLYLQMNSLKPEDTALYYCAKARGDIDVYTLSDSRGQGTQVTVSS
notes: tested as periplasmic extract; also called DLLBII102G4; not shown: C-terminal c-myc tag and His6 tag
B16: DLLBII7B05 (VHH)
VHH: EVQLVESGGGLVQAGGSLRLSCAASGFALDYYAVGWFRQAPGKEREGVSCISSRGGSTFYADSVKGRFTTSRNNAKNTVYLQMNSLKPEDTAVYYCAAHPLQNCCGGSAYASPEAVYEYWGQGTQVTVSS
notes: also called DLLBII07B05; DLLBII7B5; not shown: C-terminal c-myc tag and His6 tag
B17: DLLBII62C11 (VHH)
VHH: EVQLMESGGGLVQPGGSLRLSCVAAGFTFSNYYMSWVRQAPGKGLEWVSVISPDGSNTYYADTVKGRFTISRGNAKNTLFLQMTGLKSEDAAVYYCARGSGSWGVHGQGTQVTVSS
notes: not shown: C-terminal c-myc tag and His6 tag
B18: DLLBII96C03 (VHH)
VHH: EVQLVESGGGLVQPGGSLRLSCAASGFTFGNYDMSWVRQAPGKGPEWVSAINSGGGDTYYADSVKGRFTISRDNAKNTLYLQMNSLKPEDTAVYYCATPRGWGPTGPHEYGYWGQGTQVTVSS
notes: also called DLLBII96C3; DLLBII96CO3; not shown: C-terminal c-myc tag and His6 tag
B19: DLLBII101F01 (VHH)
VHH: EVQLVESGGGLVQAGGSLRLSCAASGRTFSNYAMGWFRQAPGKEREFVAAISWSGGDTYYADSVKGRFTISRDNAKNTVCLQMNSLKPEDTAVYYCAASFQSGAAPGANFYDYWGQGTQVTVSS
notes: tested as periplasmic extract; also called DLLBII101F1; not shown: C-terminal c-myc tag and His6 tag
B20: DLLBII104C04 (VHH)
VHH: EVQLVESGGGLVQAGGSLRLSCAAAGSTFSSYVMGWYRQAPGKQRELVAHISTRGITYYADSVKGRFTISRDNAKNTMYLQMNSLKPEDTAVYYCNTRRNFLSNYWGQGTQVTVSS
notes: tested as periplasmic extract; also called DLLBII104C4; not shown: C-terminal c-myc tag and His6 tag
B21: DLLBII104B05 (VHH)
VHH: EVQLVESGGGSVQAGGSLRLSCAASGSISRIDVMAWYRQAPGKERELVASISSGGSTNYADSVKGRFTISREYFKNMMYLQMNSLKFEDTAVYYCNADSRRGGVGNFFRSWGQGTQVTVSS
notes: tested as periplasmic extract; also called DLLBII104B5; not shown: C-terminal c-myc tag and His6 tag
B22: DLLBII112E07 (VHH)
VHH: EVQLVESGGGLVQAGGSLRLSCAASGRTVRSYATGWFRQAPGKEREFVAALRWSIGSIASVYYDDSVKGRFTISGDNAENTVYLQMNALKPEDTAIYYCASTTRGRYSALSASAYDYWGQGTQVTVSS
notes: tested as periplasmic extract; also called DLLBII112E7; not shown: C-terminal c-myc tag and His6 tag
B23: DLLBII107C03 (VHH)
VHH: EVQLVESGGGLVQPGGSLRLSCEVSGSIGSVSDMRWYRQAPGLQYELVARITSGSITDYSDSVKGRFTISRDNAKNTVYLQMNSLKPEDTAVYYCNADVQHSAWLKPLTYWGQGTQVTVSS
notes: tested as periplasmic extract; also called DLLBII107C3; not shown: C-terminal c-myc tag and His6 tag
B24: DLLBII58A11 (VHH)
VHH: EVQLVESGGGLVQAGGSLRLSCTTSERTVSRYSMGWFRQAPGKEREAVATISWSGDSTYYADSVKGRFTISRDNTKNTLYLQIDSLKPEDTAVYYCVAKPNLKYGSYWPPRGYDYWGQGTQVTVSS
notes: tested as periplasmic extract; not shown: C-terminal c-myc tag and His6 tag
B25: DLLBII102F08 (VHH)
VHH: EVQLVESGGGLVQTGDSLRLSCAASGSTFSNYRMGWFRQGPGKEREFVAAIGRNGQNTYYTDSVKGRFTVTRDNAKNMVYLQMNSLKPEDSAVYTCAASLRGWDTTRIDYEYWGQGTQVTVSS
notes: tested as periplasmic extract; also called DLLBII102F8; not shown: C-terminal c-myc tag and His6 tag
B26: DLLBII104A03 (VHH)
VHH: EVQLVESGGGLVQAGGSLRLSCAASGDIPRIAAMGWYRQAPGKQRELVATVSNAATTRYADSAKGRFTISRDNAKTVSLQMDNLKPEDTGVYYCYSLATTVTPSWVNYWGQGTQVTVSS
notes: tested as periplasmic extract; also called DLLBII104A3; not shown: C-terminal c-myc tag and His6 tag
B27: DLLBII101H09 (VHH)
VHH: EVQLVESGGGLVQPGGSLRLSCAASGFTLGYYTIVWFRQAPGKERKGVSCISSRDGSRYYADSVKGRFTISRDNAKNTVYLRMNSLKPEDTAVYYCAAGPDCSSYDYWGQGTQVTVSS
notes: tested as periplasmic extract; also called DLLBII101H9; not shown: C-terminal c-myc tag and His6 tag
B28: DLLBII80E08 (VHH)
VHH: EVQLVESGGGLVQAGGSLTLSCAASGGTFTTYAMGWFRQAPGKEREFVAAVSRFGVSWDYADSVKGRFTISRDNTANTLKLRMNSLKADDTAVYYCAAGGRSFLPFVPAYWGQGTQVTVSS
notes: tested as periplasmic extract; also called DLLBII80E8; not shown: C-terminal c-myc tag and His6 tag
B29: DLLBII17F10 (VHH)
VHH: EVQLVESGGGLVQAGGSLRLSCASSGRTLLNYAMGWFRQAPGKEREFVSGINWSGGSTYYADSVKGRFTISRDNAENTVYLHMNSLKPEDTAVYYCAAAHDNYWFTDDSLGRGLKYWGQGTQVTVSS
notes: as for B17

Numbering of substitutions follows the chain as printed. Results are given in words; binding and its absence hold for the method and conditions named. Some results given as binding are weak or reduced against the parent protein; the word gives no strength.

The target in the first assay is recombinant human DLL4, C-terminally His-tagged extracellular domain (R&D Systems) (human) (UniProt Q9NR61). Nature of the assay: AlphaScreen competition: biotinylated hDLL4 vs hNotch1/Fc.
On to B1, for which the binding result is reported as “binds”. Take B2: the binding entry is given as “binds”. B3: the binding result is reported as “binds”. Regarding B4, the binding result was “binds”. Take B5: the binding result is on record as “binds”.

For the molecule B6, the binding result was “binds”. Same read-out and setting: under B7 stands “binds”; under B8, “binds”.

Regarding B9, the binding result is recorded as “binds”. Consider B10, for which the binding entry is reported as “binds”. Regarding B11, the binding entry is “binds”. For the molecule B12, the binding entry was “binds”. On to B13, for which the binding entry was “binds”.

B14: the binding result is on record as “binds”. As to B15, the binding result is listed as “binds”.

On to B16, for which the binding entry is “binds”. For B17, the binding entry is recorded as “binds”.

For the next assay the target is unchanged. Nature of the assay: competition ELISA: biotinylated hDLL4 + binder, binding to coated hNotch1/Fc.
Turning to B2, the binding result is “binds”. B3: the binding entry is “binds”.

B4: the binding result is “binds”. For the molecule B5, the binding entry is “binds”. For the molecule B6, the binding result is “binds”. B18: the binding entry is recorded as “binds”.

As to B17, the binding result was “binds”.

The target of the next assay is full length mouse DLL4 on overexpressing CHO or HEK293 cells (mouse) (UniProt Q9JI71). The assay can be described thus: FMAT competition: labelled hNotch1/Fc on CHO-mDLL4 cells.
For the molecule B1, the binding result was “binds”.

As for B19, the binding entry is reported as “binds”. On to B20, for which the binding result was “binds”. With B21, the binding entry was “binds”. For the molecule B22, the binding result was “binds”. Regarding B23, the binding entry is “binds”. In the case of B24, the binding entry is on record as “binds”. On the same count and under the same terms, under B10 stands “binds”; under B12, “binds”.

Turning to B25, the binding result is on record as “binds”. Consider B15, for which the binding entry is given as “binds”. With B26, the binding entry is listed as “binds”. On the same count and under the same terms, under B27 stands “binds”; under B28, “binds”.

For another assay, the target named is recombinant human DLL4, C-terminally His-tagged extracellular domain (R&D Systems) (human) (UniProt Q9NR61). Nature of the assay: binding ELISA, coated rhDLL4 [binding to rhDLL4].
As for B2, the binding result is on record as “binds”. In the case of B3, the binding entry was “binds”. With B4, the binding entry is “binds”.

For the molecule B5, the binding entry is on record as “binds”. As to B6, the binding result was “binds”. Same read-out and setting: under B7 stands “binds”. With B8, the binding entry was “binds”. Turning to B18, the binding entry is “binds”.

Turning to B9, the binding result is “binds”. On the same count and under the same terms, under B11 stands “binds”. Same read-out and setting: the entry for B14 is “binds”; for B29 it is “binds”. Same read-out and setting: under B16 stands “binds”; under B17, “binds”.
